According to article PMC7295066:
No constants are given. Whether binding was seen depends on the method and setting. Binding seen in cells or lysates may run through a third protein. Some entries that bind do so weakly or less than the wild type.

Chains of the proteins cited; added tags and fusions are not shown.
UniProt Q9Y618: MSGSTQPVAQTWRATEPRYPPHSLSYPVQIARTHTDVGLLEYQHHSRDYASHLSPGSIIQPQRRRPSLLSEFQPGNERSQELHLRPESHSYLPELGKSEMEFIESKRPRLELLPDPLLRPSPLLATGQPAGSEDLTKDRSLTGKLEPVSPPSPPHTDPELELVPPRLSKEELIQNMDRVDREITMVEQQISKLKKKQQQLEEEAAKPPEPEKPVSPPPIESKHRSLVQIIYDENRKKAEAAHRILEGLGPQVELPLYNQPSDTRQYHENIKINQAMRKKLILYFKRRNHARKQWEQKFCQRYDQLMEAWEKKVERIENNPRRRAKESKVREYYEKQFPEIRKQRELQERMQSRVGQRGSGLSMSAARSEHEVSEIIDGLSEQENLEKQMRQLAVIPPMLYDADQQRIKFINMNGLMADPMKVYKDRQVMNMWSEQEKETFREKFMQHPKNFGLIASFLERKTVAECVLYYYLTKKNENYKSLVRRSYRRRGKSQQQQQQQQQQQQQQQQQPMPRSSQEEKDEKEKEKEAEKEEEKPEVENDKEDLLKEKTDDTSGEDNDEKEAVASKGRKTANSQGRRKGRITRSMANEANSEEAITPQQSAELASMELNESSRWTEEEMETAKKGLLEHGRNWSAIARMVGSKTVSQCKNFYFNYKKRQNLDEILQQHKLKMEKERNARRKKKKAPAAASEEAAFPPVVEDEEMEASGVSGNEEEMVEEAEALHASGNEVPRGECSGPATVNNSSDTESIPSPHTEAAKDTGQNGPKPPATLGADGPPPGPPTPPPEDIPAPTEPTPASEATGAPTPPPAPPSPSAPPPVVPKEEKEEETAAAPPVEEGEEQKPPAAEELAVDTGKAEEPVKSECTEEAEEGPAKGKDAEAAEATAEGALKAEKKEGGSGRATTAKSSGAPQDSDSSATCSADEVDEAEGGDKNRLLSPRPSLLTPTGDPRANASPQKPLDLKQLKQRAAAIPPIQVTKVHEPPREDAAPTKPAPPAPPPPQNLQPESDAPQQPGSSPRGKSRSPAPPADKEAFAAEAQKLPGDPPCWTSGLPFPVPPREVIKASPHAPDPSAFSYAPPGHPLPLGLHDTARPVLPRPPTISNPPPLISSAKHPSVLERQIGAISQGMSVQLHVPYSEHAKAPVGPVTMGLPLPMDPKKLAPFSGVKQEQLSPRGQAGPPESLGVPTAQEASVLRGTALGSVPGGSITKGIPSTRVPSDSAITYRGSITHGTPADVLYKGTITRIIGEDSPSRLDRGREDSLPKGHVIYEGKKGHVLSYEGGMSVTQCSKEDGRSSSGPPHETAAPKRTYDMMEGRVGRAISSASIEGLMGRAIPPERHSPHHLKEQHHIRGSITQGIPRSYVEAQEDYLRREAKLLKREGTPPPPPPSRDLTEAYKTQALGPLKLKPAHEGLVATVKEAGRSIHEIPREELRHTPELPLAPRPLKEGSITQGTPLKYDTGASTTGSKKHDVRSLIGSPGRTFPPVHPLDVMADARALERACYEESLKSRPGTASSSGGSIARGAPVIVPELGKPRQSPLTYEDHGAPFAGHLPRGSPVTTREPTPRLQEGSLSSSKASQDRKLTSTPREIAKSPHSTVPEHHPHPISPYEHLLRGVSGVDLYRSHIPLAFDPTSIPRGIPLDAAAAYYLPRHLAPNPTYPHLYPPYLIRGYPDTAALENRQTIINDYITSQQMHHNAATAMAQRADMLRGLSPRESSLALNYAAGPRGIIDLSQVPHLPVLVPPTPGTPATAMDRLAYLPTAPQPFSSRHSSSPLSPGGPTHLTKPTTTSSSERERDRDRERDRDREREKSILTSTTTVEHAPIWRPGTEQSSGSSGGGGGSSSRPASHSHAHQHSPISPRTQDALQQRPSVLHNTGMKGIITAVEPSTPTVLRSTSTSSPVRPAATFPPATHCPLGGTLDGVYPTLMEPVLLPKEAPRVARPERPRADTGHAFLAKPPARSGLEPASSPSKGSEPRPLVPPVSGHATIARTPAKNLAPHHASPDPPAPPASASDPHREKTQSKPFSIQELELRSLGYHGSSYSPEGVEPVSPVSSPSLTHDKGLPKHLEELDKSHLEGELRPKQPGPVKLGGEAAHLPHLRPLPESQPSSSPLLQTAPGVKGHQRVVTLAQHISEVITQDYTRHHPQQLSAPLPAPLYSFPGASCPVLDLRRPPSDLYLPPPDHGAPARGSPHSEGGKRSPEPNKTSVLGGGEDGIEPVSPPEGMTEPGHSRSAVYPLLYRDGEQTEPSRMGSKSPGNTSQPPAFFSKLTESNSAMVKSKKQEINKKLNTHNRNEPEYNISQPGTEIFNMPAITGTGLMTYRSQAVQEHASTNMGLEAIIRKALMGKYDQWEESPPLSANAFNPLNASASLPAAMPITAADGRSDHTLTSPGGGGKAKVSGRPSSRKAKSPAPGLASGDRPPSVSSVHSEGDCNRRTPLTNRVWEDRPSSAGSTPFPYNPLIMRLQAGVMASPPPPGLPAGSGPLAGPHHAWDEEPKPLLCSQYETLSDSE
UniProt P19793: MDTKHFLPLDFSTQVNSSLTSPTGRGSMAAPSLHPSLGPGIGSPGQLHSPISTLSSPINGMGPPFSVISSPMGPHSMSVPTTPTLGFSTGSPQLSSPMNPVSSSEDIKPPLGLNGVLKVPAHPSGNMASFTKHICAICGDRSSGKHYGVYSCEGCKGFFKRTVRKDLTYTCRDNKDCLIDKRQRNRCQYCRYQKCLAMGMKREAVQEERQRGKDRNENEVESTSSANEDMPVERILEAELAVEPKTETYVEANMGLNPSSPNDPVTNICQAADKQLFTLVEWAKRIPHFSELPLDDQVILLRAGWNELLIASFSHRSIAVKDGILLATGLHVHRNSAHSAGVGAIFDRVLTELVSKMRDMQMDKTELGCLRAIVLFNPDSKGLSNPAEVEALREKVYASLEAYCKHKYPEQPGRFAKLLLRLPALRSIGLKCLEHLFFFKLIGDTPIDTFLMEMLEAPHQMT

Columns and labels:
[1] = target: nuclear receptor corepressor 2 (NCOR2) (human (endogenous in MDA-MB-231)) (UniProt Q9Y618); experiment: co-IP; endogenous proteins in MDA-MB-231 lysates (20 mM Tris-HCl pH 7.5, 150 mM NaCl, 2 mM EDTA, 1% Triton X100); anti-NCOR2, anti-RARα or anti-RXRα antibody with protein-G-agarose overnight at 4 °C; western blot; cells treated with DMSO or emodin for 48 h
[2] = target: nuclear receptor corepressor 2 (NCOR2) (human (endogenous in MDA-MB-231)) (UniProt Q9Y618); experiment: condition: only cells treated with emodin for 48 h (10 µM in the legend); co-IP; as a1, cells treated with emodin for 48 h before lysis (10 µM in the legend; increased dosages in the text)

binding [1]: binds
binding [2]: no binding
Substance: RXRα (from UniProt P19793 1-462)
